Experimental data as given in PubChem BioAssay AID2685 (National Center for Advancing Translational Sciences (NCATS), 2010).
This is one part of the list. Further columns of the screen follow, without active or inactive calls. The list favours compounds with an active or inconclusive main result. Words in brackets tell the shape of the fitted curve; partial curves, single points and poor fits give uncertain potencies.

Assay: qHTS Assay for Lipid Storage Modulators in Drosophila S3 Cells;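 on cell number change: cells counted by Cell Tracker Red CMTPX staining in the red channel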
Conditions: BODIPY lipid droplet fluorescence, 18-24 h; for cell number change: measured here: cell count max response, cells fed with added oleic acid
Outline: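 Drosophila S3 cells got compounds at several concentrations plus oleic acid (400 uM solution). Laser-scanning cytometry with 488 nm excitation read lipid droplets at 500-530 nm and cells at 575-640 nm. Percent activity was relative to 20 uM Triacsin C.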

[1] = measured here: cell number channel AC50, cells fed with added oleic acid
[2] = measured here: lipid fluorescence (Fed channel) AC50, cells fed with added oleic acid

COc1ccccc1CNC(=O)c1cc(-c2ccncc2)nc2c(Cl)cccc12
cell number change: -9.34%

CCCCOc1ccc(Cl)cc1CSc1nnc(CC)n1N
cell number change: 31.5% | AC50 [1]: 20.6 µM [rising, single point] | AC50 [2]: 0.58 µM [rising, single point]

Cc1c(C(=O)NCCSCc2ccc(Cl)cc2Cl)cccc1[N+](=O)[O-]
cell number change: -3.21% | AC50 [2]: 29.1 µM [falling, partial curve, poor fit]

CCOc1ccccc1NC(=O)CSc1ccc(-c2ccco2)nn1
cell number change: -8.38% | AC50 [2]: 2.31 µM [rising, partial curve]

CNC(=O)c1nc(C)c(C2(C)CC(c3cccc([N+](=O)[O-])c3)=NO2)s1 (stereo not given)
cell number change: -3.4% | AC50 [2]: 6.51 µM [rising, single point]

COc1ccc(CN(Cc2ccc(C(=O)O)cc2)C(=S)Nc2cccc(C)c2)cc1OC
cell number change: -20.7% | AC50 [1]: 6.51 µM [falling, partial curve] | AC50 [2]: 5.8 µM [falling, partial curve]

CCCC(=O)Nc1c(-c2cccs2)c(=O)c2ccccc2n1C
cell number change: 36.9% | AC50 [1]: 7.31 µM [rising, partial curve] | AC50 [2]: 2.31 µM [rising, partial curve, poor fit]

O=c1c2ccccc2nc(-c2cccs2)n1-c1ccc2ccccc2c1
cell number change: 32% | AC50 [1]: 2.06 µM [rising, partial curve]

COCCCNC(=O)c1ccc(C(=O)NCCCOC)cc1
cell number change: 1.91% | AC50 [2]: 6.51 µM [rising, partial curve, poor fit]

COc1ccc(OC(=O)C2CC(=O)N(c3ccc(C)cc3)C2)cc1 (stereo not given)
cell number change: 21% | AC50 [2]: 0.411 µM [rising, full curve, poor fit]

C=CCn1cc(C(=O)NCc2ccc3c(c2)OCO3)c(=O)c2cc(S(=O)(=O)N(CC)CC)ccc21
cell number change: -30.3% | AC50 [1]: 29.1 µM [falling, single point] | AC50 [2]: 0.00461 µM [falling, full curve, poor fit]

Cc1ccc(C(=O)O)cc1S(=O)(=O)Nc1ccccc1C(=O)NC1CC1
cell number change: -25% | AC50 [2]: 29.1 µM [rising, single point]

Cc1ccc(S(=O)(=O)N(C)c2ccc(OCC(=O)OCC(=O)N(CC#N)c3ccccc3)cc2)cc1
cell number change: -20.7% | AC50 [2]: 0.731 µM [falling, full curve, poor fit]

CCOc1ccc(NC(=O)C2=C(C)C(=O)OC23CCC(C)CC3)cc1 (stereo not given)
cell number change: 20.8%

COc1cc(NC(=O)C(C)Oc2ccccc2)ccc1NC(=O)COc1ccccc1 (stereo not given)
cell number change: -11%

COc1ccccc1NS(=O)(=O)c1ccc(OC)c([N+](=O)[O-])c1
AC50 [1]: 3.66 µM [falling, single point]

CCc1ccc(-c2cc(C)no2)cc1S(=O)(=O)N1CCOc2ccccc21
AC50 [2]: 20.6 µM [falling, partial curve]

CCOC(=O)c1ccc(NC(=O)C2CCCO2)cc1 (stereo not given)
cell number change: 53.6% | AC50 [1]: 29.1 µM [rising, single point]

CCCCn1c(N)c(N(CCOC)C(=O)C(C)N2C(=O)c3ccccc3C2=O)c(=O)[nH]c1=O (stereo not given)
cell number change: 11.7% | AC50 [2]: 0.259 µM [falling, full curve, poor fit]

CN(CC(=O)NCCc1ccc(F)cc1)Cc1cccs1
cell number change: 14.6% | AC50 [1]: 3.26 µM [rising, single point] | AC50 [2]: 4.11 µM [rising, single point]

Cc1noc(C)c1CSCC(=O)Nc1cc(S(=O)(=O)N2CCCCC2)ccc1OC(C)C
cell number change: 39.1% | AC50 [1]: 6.51 µM [rising, partial curve, poor fit]

COc1ccc(-n2c(CN3CCN(c4ccccc4)CC3)nc3ccc([N+](=O)[O-])cc3c2=O)c(OC)c1
cell number change: 28.1% | AC50 [1]: 0.0651 µM [rising, full curve, poor fit] | AC50 [2]: 0.13 µM [rising, full curve]

COc1ccccc1N1CCN(C2=NS(=O)(=O)c3ccccc32)CC1
AC50 [1]: 0.58 µM [rising, single point]

CCN(CC)c1ccc(C(=O)N/N=C/c2ccc(N3CCOCC3)cc2)cc1
cell number change: 20.9% | AC50 [1]: 5.17 µM [rising, single point] | AC50 [2]: 5.17 µM [rising, single point]

COc1ccccc1C(=O)COC(=O)CCN=C1NS(=O)(=O)c2ccccc21
cell number change: 16.8% | AC50 [2]: 23.1 µM [falling, single point]

CCC(CO)NCc1ccc(OCC(O)c2ccccc2)c(OC)c1 (stereo not given)
cell number change: -29.6% | AC50 [2]: 6.51 µM [falling, single point]

COc1cc(C2=NOC(C(=O)Nc3ccc(C)cc3)C2)cc(OC)c1OC (stereo not given)
cell number change: -15.4% | AC50 [2]: 6.51 µM [falling, full curve]

CCOc1ccccc1N(CC(=O)N/N=C/c1cc(Br)ccc1OC)S(C)(=O)=O
cell number change: 21.4% | AC50 [1]: 2.59 µM [rising, full curve, poor fit] | AC50 [2]: 3.66 µM [rising, partial curve]

CCOCCCNC(=O)c1ccccc1SC
cell number change: -7.67% | AC50 [1]: 0.146 µM [falling, full curve, poor fit] | AC50 [2]: 0.13 µM [falling, partial curve]

COc1ccc2[nH]cc(CCNC(=O)C3CC(=O)N(c4ccc(Cl)cc4)C3)c2c1 (stereo not given)
cell number change: 23.9%

CCOc1ccc(S(=O)(=O)Nc2cccc(C(=O)NCCCN3CCCC3=O)c2)cc1
cell number change: 3.11% | AC50 [2]: 0.461 µM [falling, single point]

Cc1[nH]c2c(C)cccc2c1CN1CCC(CO)(Cc2ccccc2)CC1
cell number change: -4.56% | AC50 [2]: 6.51 µM [falling, single point]

Cc1ccc(S(=O)(=O)Nc2cc(-c3nn(C)c(=O)c4ccccc34)ccc2N2CCOCC2)cc1
cell number change: -5.22% | AC50 [1]: 0.206 µM [rising, full curve, poor fit]

CCOc1cccc(NC(=O)Cn2nc(-c3ccc4c(c3)OCCO4)ccc2=O)c1
cell number change: 33.1% | AC50 [1]: 18.4 µM [rising, single point]

O=C(c1ccc(-n2cnnn2)cc1)N1CCOCC1
cell number change: -0.165% | AC50 [2]: 29.1 µM [rising, single point]

CCOC(=O)CSc1nc2c(sc(=S)n2-c2ccccc2OC)c(=O)n1Cc1ccco1
cell number change: 8.12% | AC50 [1]: 0.0366 µM [rising, full curve] | AC50 [2]: 0.184 µM [rising, partial curve]
